The other results are listed elsewhere or left out.
Assays:
Assay in all cases: glycan array binding signal (z-score within array); higher = stronger binding
Details in all cases: glycan notation: IUPAC condensed, linker removed
[1] = target: Kdn(a2-3)Gal(b1-4)Glc
Method in brief: (§1)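 Glycan array data came from 3228 arrays in the Consortium for Functional Glycomics database, and only arrays with an available protein sequence were kept. Glycan names were put into IUPAC-condensed notation, and columns mapping to the same glycan were averaged. The binding signal is a within-array Z-score, averaged across arrays of one protein sequence run at different concentrations or buffers and across linkers. A negative Z-score can be read as non-binding.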

[2] = target: Kdn(a2-3)Gal(b1-4)GlcNAc
Method in brief: as §1

[3] = target: Kdn(a2-3)Gal(b1-4)[Fuc(a1-3)]GlcNAc
Method in brief: as §1

[4] = target: Kdn(a2-6)Gal(b1-4)GlcNAc
Method in brief: as §1

[5] = target: Man(a1-2)Man(a1-2)Man(a1-3)Man
Method in brief: as §1

[6] = target: Man(a1-2)Man(a1-2)Man(a1-6)[Man(a1-3)]Man
Method in brief: as §1

[7] = target: Man(a1-2)Man(a1-3)Man
Method in brief: as §1

[8] = target: Man(a1-2)Man(a1-3)[Man(a1-2)Man(a1-6)]Man
Method in brief: as §1

[9] = target: Man(a1-2)Man(a1-3)[Man(a1-2)Man(a1-6)]Man(a1-6)[Man(a1-2)Man(a1-2)Man(a1-3)]Man
Method in brief: as §1

[10] = target: Man(a1-2)Man(a1-3)[Man(a1-2)Man(a1-6)]Man(a1-6)[Man(a1-2)Man(a1-2)Man(a1-3)]Man(b1-4)GlcNAc(b1-4)GlcNAc
Method in brief: as §1

[11] = target: Man(a1-2)Man(a1-3)[Man(a1-6)]Man(a1-6)[Man(a1-2)Man(a1-3)]Man(b1-4)GlcNAc(b1-4)GlcNAc
Method in brief: as §1

[12] = target: Man(a1-2)Man(a1-6)[Man(a1-3)]Man(a1-6)[Man(a1-2)Man(a1-2)Man(a1-3)]Man
Method in brief: as §1

[13] = target: Man(a1-2)Man(a1-6)[Man(a1-3)]Man(a1-6)[Man(a1-2)Man(a1-2)Man(a1-3)]Man(b1-4)GlcNAc(b1-4)GlcNAc
Method in brief: as §1

[14] = target: Man(a1-3)[Man(a1-6)]Man
Method in brief: as §1

[15] = target: Man(a1-3)[Man(a1-6)]Man(a1-6)[Man(a1-2)Man(a1-3)]Man(b1-4)GlcNAc(b1-4)GlcNAc
Method in brief: as §1

[16] = target: Man(a1-3)[Man(a1-6)]Man(a1-6)[Man(a1-3)]Man
Method in brief: as §1

[17] = target: Man(a1-3)[Man(a1-6)]Man(a1-6)[Man(a1-3)]Man(b1-4)GlcNAc(b1-4)GlcNAc
Method in brief: as §1

[18] = target: Man(a1-3)[Man(a1-6)]Man(b1-4)GlcNAc(b1-4)GlcNAc
Method in brief: as §1

[19] = target: Man(a1-3)[Man(a1-6)]Man(b1-4)GlcNAc(b1-4)[Fuc(a1-6)]GlcNAc
Method in brief: as §1

[20] = target: Man(a1-6)Man
Method in brief: as §1

[21] = target: Man(b1-4)GlcNAc
Method in brief: as §1

[22] = target: MurNAc(b1-4)GlcNAc
Method in brief: as §1

[23] = target: Neu5Ac(a2-3)Gal
Method in brief: as §1

[24] = target: Neu5Ac(a2-3)Gal(b1-3)GalNAc
Method in brief: as §1

[25] = target: Neu5Ac(a2-3)Gal(b1-3)GalNAc(b1-3)Gal(a1-4)Gal(b1-4)Glc
Method in brief: as §1

[26] = target: Neu5Ac(a2-3)Gal(b1-3)GalNAc(b1-4)[Neu5Ac(a2-3)]Gal(b1-4)Glc
Method in brief: as §1

[27] = target: Neu5Ac(a2-3)Gal(b1-3)GalNAc(b1-4)[Neu5Ac(a2-8)Neu5Ac(a2-3)]Gal(b1-4)Glc
Method in brief: as §1

[28] = target: Neu5Ac(a2-3)Gal(b1-3)GalNAc6S
Method in brief: as §1

[29] = target: Neu5Ac(a2-3)Gal(b1-3)GlcNAc
Method in brief: as §1

[30] = target: Neu5Ac(a2-3)Gal(b1-3)GlcNAc(b1-2)Man
Method in brief: as §1

[31] = target: Neu5Ac(a2-3)Gal(b1-3)GlcNAc(b1-2)Man(a1-3)[GlcNAc(b1-4)][Neu5Ac(a2-3)Gal(b1-3)GlcNAc(b1-2)Man(a1-6)]Man(b1-4)GlcNAc(b1-4)GlcNAc
Method in brief: as §1

[32] = target: Neu5Ac(a2-3)Gal(b1-3)GlcNAc(b1-2)Man(a1-3)[Neu5Ac(a2-3)Gal(b1-3)GlcNAc(b1-2)Man(a1-6)]Man(b1-4)GlcNAc(b1-4)GlcNAc
Method in brief: as §1

[33] = target: Neu5Ac(a2-3)Gal(b1-3)GlcNAc(b1-3)Gal(b1-3)GlcNAc
Method in brief: as §1

[34] = target: Neu5Ac(a2-3)Gal(b1-3)GlcNAc(b1-3)Gal(b1-4)GlcNAc
Method in brief: as §1

[35] = target: Neu5Ac(a2-3)Gal(b1-3)GlcNAc(b1-3)GalNAc
Method in brief: as §1

[36] = target: Neu5Ac(a2-3)Gal(b1-3)GlcNAc(b1-4)Gal(b1-4)Glc
Method in brief: as §1

[37] = target: Neu5Ac(a2-3)Gal(b1-3)GlcNAc(b1-6)GalNAc
Method in brief: as §1

[38] = target: Neu5Ac(a2-3)Gal(b1-3)GlcNAc6S
Method in brief: as §1

B1: PX9961M-bvu-482-23-482 (Bacteroides vulgatus) (protein)
chain: WLDLAPSTQVDTETSINVLSDIEFTLNGIYSTMQSSDAYSGRLVYYGDVTGDDMQAVSSTKRTGNYYRFNFTKDNGPSSHWSYLYSIIQNCNLILMNVDKLSIDEDETEYKNDLKGQALAIRGMALFDLTRIFGYPYLKDNGASLGVPIVKELSTIDSKPARNTVAECYTEIISDLKNSTELLSGDFNKGKVNRWAAMTLLSRVYLYKGEYNEALTMAENAIKGAEKEGYALWTNEEYPTAWGNDASASNPGEILFEIVNLTTDSPGKESMGYLNSYNGYDDMCITCSFYQLLKKDPKDVRLKILSFDKKYYAYVNKYQPQQGENITDANIPLIRLSEAYLNAAEAAVQTGDNAKAVKYLNSIVQRANPENSVEGKTLTLENVLDERRKELVAEGHRMYDVIRNGMTVKRIDVKDSDINKTKHNTAYMEYDWNFHKILLPIPKKEMDANPNMKQNPGYVD
[1]
  glycan array binding signal (z-score): 0.964
[2]
  glycan array binding signal (z-score): 0.088
[3]
  glycan array binding signal (z-score): 0.143
[4]
  glycan array binding signal (z-score): -0.275
[5]
  glycan array binding signal (z-score): -0.771
[6]
  glycan array binding signal (z-score): 0.455
[7]
  glycan array binding signal (z-score): -0.314
[8]
  glycan array binding signal (z-score): -0.326
[9]
  glycan array binding signal (z-score): -0.849
[10]
  glycan array binding signal (z-score): -0.156
[11]
  glycan array binding signal (z-score): -0.917
[12]
  glycan array binding signal (z-score): -0.582
[13]
  glycan array binding signal (z-score): -0.222
[14]
  glycan array binding signal (z-score): -0.711
[15]
  glycan array binding signal (z-score): 0.063
[16]
  glycan array binding signal (z-score): 2.74
[17]
  glycan array binding signal (z-score): 0.781
[18]
  glycan array binding signal (z-score): -0.322
[19]
  glycan array binding signal (z-score): -0.449
[20]
  glycan array binding signal (z-score): -0.459
[21]
  glycan array binding signal (z-score): -0.469
[22]
  glycan array binding signal (z-score): 0.229
[23]
  glycan array binding signal (z-score): -0.037
[24]
  glycan array binding signal (z-score): -0.391
[25]
  glycan array binding signal (z-score): -0.335
[26]
  glycan array binding signal (z-score): -0.476
[27]
  glycan array binding signal (z-score): 0.996
[28]
  glycan array binding signal (z-score): -0.6
[29]
  glycan array binding signal (z-score): -0.551
[30]
  glycan array binding signal (z-score): 0.535
[31]
  glycan array binding signal (z-score): -0.624
[32]
  glycan array binding signal (z-score): -0.296
[33]
  glycan array binding signal (z-score): -1.15
[34]
  glycan array binding signal (z-score): 0.527
[35]
  glycan array binding signal (z-score): 0.035
[36]
  glycan array binding signal (z-score): -0.756
[37]
  glycan array binding signal (z-score): -0.758
[38]
  glycan array binding signal (z-score): -0.059
